The text below walks through data of PMC4217029.

Holding throughout (experiment): co-IP; Lac1-Lag1 association in cells with the wild-type proteins or the S23A S24A or S23E S24E mutants of both; data not shown; tags and bait not stated
In assay [1] the target is T1, tagged Lag1 (S. cerevisiae) (UniProt P38703).
T1 sequence: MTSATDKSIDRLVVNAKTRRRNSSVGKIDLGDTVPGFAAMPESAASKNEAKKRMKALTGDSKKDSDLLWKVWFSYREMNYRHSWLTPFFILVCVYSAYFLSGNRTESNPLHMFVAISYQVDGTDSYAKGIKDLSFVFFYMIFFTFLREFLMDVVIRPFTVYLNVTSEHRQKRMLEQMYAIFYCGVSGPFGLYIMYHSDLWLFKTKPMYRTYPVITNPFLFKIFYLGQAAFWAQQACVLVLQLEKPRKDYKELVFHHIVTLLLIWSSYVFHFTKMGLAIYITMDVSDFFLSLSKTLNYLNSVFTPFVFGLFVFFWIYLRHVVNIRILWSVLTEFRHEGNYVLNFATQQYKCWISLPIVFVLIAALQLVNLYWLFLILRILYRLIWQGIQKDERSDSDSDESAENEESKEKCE

The target in assay [2] is T2, tagged Lag1(S23A S24A) (S. cerevisiae) (UniProt P38703).
T2 sequence: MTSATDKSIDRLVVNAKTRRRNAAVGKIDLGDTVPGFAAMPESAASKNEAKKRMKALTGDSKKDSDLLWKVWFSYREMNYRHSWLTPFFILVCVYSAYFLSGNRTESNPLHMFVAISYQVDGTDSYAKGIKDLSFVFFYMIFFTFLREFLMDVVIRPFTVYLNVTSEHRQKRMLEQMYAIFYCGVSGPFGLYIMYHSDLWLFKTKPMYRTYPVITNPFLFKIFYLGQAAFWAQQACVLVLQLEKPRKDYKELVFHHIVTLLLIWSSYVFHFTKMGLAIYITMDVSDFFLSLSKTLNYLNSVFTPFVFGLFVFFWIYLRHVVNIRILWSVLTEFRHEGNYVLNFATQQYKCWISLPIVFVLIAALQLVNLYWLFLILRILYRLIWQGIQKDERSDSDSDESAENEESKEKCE

Assay [3] deals with T3, tagged Lag1(S23E S24E) (S. cerevisiae) (UniProt P38703).
T3 sequence: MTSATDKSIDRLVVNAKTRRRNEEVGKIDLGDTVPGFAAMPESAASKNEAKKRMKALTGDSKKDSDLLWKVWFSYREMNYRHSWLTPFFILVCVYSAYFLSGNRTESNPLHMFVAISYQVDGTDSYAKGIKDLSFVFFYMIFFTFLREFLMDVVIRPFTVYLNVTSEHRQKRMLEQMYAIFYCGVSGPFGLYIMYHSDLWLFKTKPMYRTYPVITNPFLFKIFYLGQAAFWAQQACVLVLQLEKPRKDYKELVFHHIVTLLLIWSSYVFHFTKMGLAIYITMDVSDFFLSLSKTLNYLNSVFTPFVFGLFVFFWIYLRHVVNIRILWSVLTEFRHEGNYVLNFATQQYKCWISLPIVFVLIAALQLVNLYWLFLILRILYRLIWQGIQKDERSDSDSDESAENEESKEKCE

No constants are given. Whether binding was seen depends on the method and setting. In cells and extracts the contact can be indirect. Some entries that bind do so weakly or less than the wild type. Tags and fused reporters may be left off the sequences shown.

B1: 3xHA-Lac1 (protein, UniProt P28496 1-418)
chain: MSTIKPSPSNNNLKVRSRPRRKSSIGKIDLGDTVPSLGTMFETKESKTAAKRRMQRLSEATKNDSDLVKKIWFSFREISYRHAWIAPLMILIAVYSAYFTSGNTTKTNVLHRFVAVSYQIGDTNAYGKGINDLCFVFYYMIFFTFLREFLMDVVIRPFAIRLHVTSKHRIKRIMEQMYAIFYTGVSGPFGIYCMYHSDLWFFNTKAMYRTYPDFTNPFLFKVFYLGQAAFWAQQACILVLQLEKPRKDHNELTFHHIVTLLLIWSSYVFHFTKMGLPIYITMDVSDFLLSFSKTLNYLDSGLAFFSFAIFVVAWIYLRHYINLKILWSVLTQFRTEGNYVLNFATQQYKCWISLPIVFVLIGALQLVNLYWLFLIFRVLYRILWRGILKDDRSDSESDEESDESSTTPTDSTPTKKDI
With B1, in assay [1], the binding result is on record as “binds”.

B2: 3xHA-Lac1(S23A S24A) (protein, UniProt P28496 1-418)
chain: MSTIKPSPSNNNLKVRSRPRRKAAIGKIDLGDTVPSLGTMFETKESKTAAKRRMQRLSEATKNDSDLVKKIWFSFREISYRHAWIAPLMILIAVYSAYFTSGNTTKTNVLHRFVAVSYQIGDTNAYGKGINDLCFVFYYMIFFTFLREFLMDVVIRPFAIRLHVTSKHRIKRIMEQMYAIFYTGVSGPFGIYCMYHSDLWFFNTKAMYRTYPDFTNPFLFKVFYLGQAAFWAQQACILVLQLEKPRKDHNELTFHHIVTLLLIWSSYVFHFTKMGLPIYITMDVSDFLLSFSKTLNYLDSGLAFFSFAIFVVAWIYLRHYINLKILWSVLTQFRTEGNYVLNFATQQYKCWISLPIVFVLIGALQLVNLYWLFLIFRVLYRILWRGILKDDRSDSESDEESDESSTTPTDSTPTKKDI
For B2, the binding entry in assay [2] is given as “binds”.

B3: 3xHA-Lac1(S23E S24E) (protein, UniProt P28496 1-418)
chain: MSTIKPSPSNNNLKVRSRPRRKEEIGKIDLGDTVPSLGTMFETKESKTAAKRRMQRLSEATKNDSDLVKKIWFSFREISYRHAWIAPLMILIAVYSAYFTSGNTTKTNVLHRFVAVSYQIGDTNAYGKGINDLCFVFYYMIFFTFLREFLMDVVIRPFAIRLHVTSKHRIKRIMEQMYAIFYTGVSGPFGIYCMYHSDLWFFNTKAMYRTYPDFTNPFLFKVFYLGQAAFWAQQACILVLQLEKPRKDHNELTFHHIVTLLLIWSSYVFHFTKMGLPIYITMDVSDFLLSFSKTLNYLDSGLAFFSFAIFVVAWIYLRHYINLKILWSVLTQFRTEGNYVLNFATQQYKCWISLPIVFVLIGALQLVNLYWLFLIFRVLYRILWRGILKDDRSDSESDEESDESSTTPTDSTPTKKDI
Take B3: the binding entry in assay [3] is listed as “binds”.
